In PMC6221296:
No constants are given. Whether binding was seen depends on the method and setting. Binding seen in cells or lysates may run through a third protein. Some entries that bind do so weakly or less than the wild type.

Amino acid sequences for entries named in this document (tags omitted).
UniProt P13864: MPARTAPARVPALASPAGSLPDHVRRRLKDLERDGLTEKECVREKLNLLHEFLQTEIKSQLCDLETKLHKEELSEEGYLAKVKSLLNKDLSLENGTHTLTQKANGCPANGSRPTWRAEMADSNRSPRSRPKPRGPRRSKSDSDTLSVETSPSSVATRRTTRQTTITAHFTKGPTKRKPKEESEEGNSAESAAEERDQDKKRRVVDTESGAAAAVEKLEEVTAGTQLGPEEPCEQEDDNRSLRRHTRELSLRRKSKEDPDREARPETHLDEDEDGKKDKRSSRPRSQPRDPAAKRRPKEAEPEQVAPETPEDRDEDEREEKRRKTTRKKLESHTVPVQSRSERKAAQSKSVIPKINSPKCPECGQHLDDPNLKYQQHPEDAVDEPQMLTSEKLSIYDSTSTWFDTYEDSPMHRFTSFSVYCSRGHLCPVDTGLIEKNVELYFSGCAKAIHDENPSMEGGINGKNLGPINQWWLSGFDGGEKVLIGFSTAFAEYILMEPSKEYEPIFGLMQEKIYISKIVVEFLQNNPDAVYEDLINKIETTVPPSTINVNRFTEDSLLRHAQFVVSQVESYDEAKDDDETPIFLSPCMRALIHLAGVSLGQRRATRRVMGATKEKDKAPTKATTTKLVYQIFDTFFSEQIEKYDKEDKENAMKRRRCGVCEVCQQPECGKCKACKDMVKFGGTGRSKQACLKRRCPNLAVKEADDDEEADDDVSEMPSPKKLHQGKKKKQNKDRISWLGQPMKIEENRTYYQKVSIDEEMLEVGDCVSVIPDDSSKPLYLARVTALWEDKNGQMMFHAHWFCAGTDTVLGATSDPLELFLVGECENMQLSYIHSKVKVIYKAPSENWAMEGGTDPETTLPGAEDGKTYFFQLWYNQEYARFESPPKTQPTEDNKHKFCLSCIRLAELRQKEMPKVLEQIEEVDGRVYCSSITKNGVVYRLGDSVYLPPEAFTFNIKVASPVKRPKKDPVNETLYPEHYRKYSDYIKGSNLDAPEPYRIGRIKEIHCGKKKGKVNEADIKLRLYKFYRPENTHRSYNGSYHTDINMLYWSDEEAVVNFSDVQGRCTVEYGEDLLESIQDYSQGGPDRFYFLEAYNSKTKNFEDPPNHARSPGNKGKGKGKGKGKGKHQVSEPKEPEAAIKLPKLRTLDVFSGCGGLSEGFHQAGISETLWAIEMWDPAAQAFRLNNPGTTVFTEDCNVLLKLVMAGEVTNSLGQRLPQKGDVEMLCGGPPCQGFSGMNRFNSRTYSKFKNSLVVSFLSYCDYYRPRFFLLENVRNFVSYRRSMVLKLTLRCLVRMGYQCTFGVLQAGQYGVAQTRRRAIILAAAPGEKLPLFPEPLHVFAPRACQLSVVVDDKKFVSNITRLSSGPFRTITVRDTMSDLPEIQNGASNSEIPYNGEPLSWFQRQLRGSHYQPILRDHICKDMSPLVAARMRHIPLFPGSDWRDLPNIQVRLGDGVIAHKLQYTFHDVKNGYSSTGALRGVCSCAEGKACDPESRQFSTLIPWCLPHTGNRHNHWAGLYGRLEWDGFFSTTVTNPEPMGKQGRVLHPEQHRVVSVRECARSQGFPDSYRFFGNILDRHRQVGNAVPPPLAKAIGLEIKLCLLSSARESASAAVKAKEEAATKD
UniProt O09106: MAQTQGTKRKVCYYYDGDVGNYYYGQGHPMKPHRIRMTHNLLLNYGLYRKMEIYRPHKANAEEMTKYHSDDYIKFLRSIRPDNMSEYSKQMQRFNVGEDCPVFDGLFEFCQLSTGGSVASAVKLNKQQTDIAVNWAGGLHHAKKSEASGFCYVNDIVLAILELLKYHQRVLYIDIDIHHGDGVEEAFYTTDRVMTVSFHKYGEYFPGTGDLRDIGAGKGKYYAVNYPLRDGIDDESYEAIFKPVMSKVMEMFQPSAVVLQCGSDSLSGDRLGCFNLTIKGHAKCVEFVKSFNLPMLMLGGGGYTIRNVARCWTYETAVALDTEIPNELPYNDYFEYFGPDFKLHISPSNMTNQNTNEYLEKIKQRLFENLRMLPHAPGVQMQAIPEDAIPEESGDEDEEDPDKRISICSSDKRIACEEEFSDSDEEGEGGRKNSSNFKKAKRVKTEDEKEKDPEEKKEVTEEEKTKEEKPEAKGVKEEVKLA
UniProt Q9CWR8: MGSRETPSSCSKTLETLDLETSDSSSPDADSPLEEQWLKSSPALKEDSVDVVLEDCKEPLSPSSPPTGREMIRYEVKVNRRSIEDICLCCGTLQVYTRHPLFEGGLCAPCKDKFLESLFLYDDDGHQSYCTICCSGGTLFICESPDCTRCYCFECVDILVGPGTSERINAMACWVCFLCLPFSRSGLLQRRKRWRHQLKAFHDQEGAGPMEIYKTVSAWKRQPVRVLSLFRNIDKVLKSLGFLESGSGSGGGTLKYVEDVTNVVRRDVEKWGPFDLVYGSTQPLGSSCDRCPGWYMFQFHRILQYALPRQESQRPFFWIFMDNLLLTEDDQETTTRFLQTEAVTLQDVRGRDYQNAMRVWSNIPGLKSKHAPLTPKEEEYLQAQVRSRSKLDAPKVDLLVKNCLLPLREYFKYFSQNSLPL

Experiments:
[1] = target: MAX (mouse (endogenous in VV3 ESCs)) (UniProt P28574); test: co-IP; anti-MAX antibody (Santa Cruz sc-197x) cross-linked to Protein G Dynabeads; nuclear extract of VV3 ESCs in Buffer B (20 mM Hepes-NaOH pH 7.9, 350 mM NaCl, 1.5 mM MgCl2, 0.2 mM EDTA, 0.1% NP-40, 10% glycerol, 0.5 mM DTT), overnight at 4°C; elution with 0.1 M glycine pH 3.5; Western blotting; control IgG
[2] = target: MAX (mouse (endogenous in VV3 ESCs)) (UniProt P28574); test: co-IP; VV3 ESC nuclear extract fractionated on heparin (A-D) and Q sepharose (I-IV) columns; fractions A-III, B-III, C-III, D-III incubated with anti-MAX antibody-bound Protein G Dynabeads for 12 h at 4°C with Benzonase nuclease; washes with 0.15 M NaCl, 0.1% NP-40, 50 mM HEPES pH 7.4; Western blotting; control IgG

**Q.** “DNMT3B (from UniProt O88509 1-859) (enzyme)” was tested. Which binding [1] did it give?
**A.** The binding was “binds”.

**Q.** Which binding [1] does the source give for “DNMT1 (from UniProt P13864 1-1620) (enzyme)” here?
**A.** The binding was “binds”.

**Q.** For “HDAC1 (from UniProt O09106 1-482) (enzyme)”, which binding [1] is on record?
**A.** Its binding is “binds”.

**Q.** DNMT3L (from UniProt Q9CWR8 1-421) was tested. Which binding [1] did it give?
**A.** Its binding is “binds”.

**Q.** And the binding [2]?
**A.** The binding was “binds”.
